In article PMC6755124:
Results are given in words; binding and its absence hold for the method and conditions named. In cells and extracts the contact can be indirect. A yes stands for co-enrichment or nearness to the bait. Other partners may have been found. Sequences can lack the tags named with a protein.

The chains behind the UniProt entries cited, without tags or fusion partners.
UniProt A4D1E9: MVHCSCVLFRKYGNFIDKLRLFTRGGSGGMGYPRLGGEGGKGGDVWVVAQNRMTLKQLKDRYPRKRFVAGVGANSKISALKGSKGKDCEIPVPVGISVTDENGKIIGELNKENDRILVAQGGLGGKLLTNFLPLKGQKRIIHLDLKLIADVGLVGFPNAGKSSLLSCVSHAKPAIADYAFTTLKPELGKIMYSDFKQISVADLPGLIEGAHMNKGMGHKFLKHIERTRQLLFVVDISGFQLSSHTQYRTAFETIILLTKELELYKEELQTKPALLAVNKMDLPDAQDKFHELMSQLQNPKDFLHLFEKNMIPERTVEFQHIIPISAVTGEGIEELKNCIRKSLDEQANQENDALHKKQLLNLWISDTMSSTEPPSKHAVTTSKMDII

B1: TRMT10C (protein, UniProt Q7L0Y3 40-403)
chain: MSSKIPAVTYPKNESTPPSEELELDKWKTTMKSSVQEECVSTISSSKDEDPLAATREFIEMWRLLGREVPEHITEEELKTLMECVSNTAKKKYLKYLYTKEKVKKARQIKKEMKAAAREEAKNIKLLETTEEDKQKNFLFLRLWDRNMDIAMGWKGAQAMQFGQPLVFDMAYENYMKRKELQNTVSQLLESEGWNRRNVDPFHIYFCNLKIDGALHRELVKRYQEKWDKLLLTSTEKSHVDLFPKDSIIYLTADSPNVMTTFRHDKVYVIGSFVDKSMQPGTSLAKAKRLNLATECLPLDKYLQWEIGNKNLTLDQMIRILLCLKNNGNWQEALQFVPKRKHTGFLEISQHSQEFINRLKKAKT
B2: C12orf65 (protein, UniProt Q9H3J6 36-166)
chain: IAVTPVQMAGKKDYPALLSLDENELEEQFVKGHGPGGQATNKTSNCVVLKHIPSGIVVKCHQTRSVDQNRKLARKILQEKVDVFYNGENSPVHKEKREAAKKKQERKKRAKETLEKKKLLKELWESSKKVH
B3: DHX30 (protein, UniProt Q7L2E3 1-1194)
chain: MFSLDSFRKDRAQHRQRQCKLPPPRLPPMCVNPTPGGTISRASRDLLKEFPQPKNLLNSVIGRALGISHAKDKLVYVHTNGPKKKKVTLHIKWPKSVEVEGYGSKKIDAERQAAAAACQLFKGWGLLGPRNELFDAAKYRVLADRFGSPADSWWRPEPTMPPTSWRQLNPESIRPGGPGGLSRSLGREEEEDEEEELEEGTIDVTDFLSMTQQDSHAPLRDSRGSSFEMTDDDSAIRALTQFPLPKNLLAKVIQIATSSSTAKNLMQFHTVGTKTKLSTLTLLWPCPMTFVAKGRRKAEAENKAAALACKKLKSLGLVDRNNEPLTHAMYNLASLRELGETQRRPCTIQVPEPILRKIETFLNHYPVESSWIAPELRLQSDDILPLGKDSGPLSDPITGKPYVPLLEAEEVRLSQSLLELWRRRGPVWQEAPQLPVDPHRDTILNAIEQHPVVVISGDTGCGKTTRIPQLLLERYVTEGRGARCNVIITQPRRISAVSVAQRVSHELGPSLRRNVGFQVRLESKPPSRGGALLFCTVGILLRKLQSNPSLEGVSHVIVDEVHERDVNTDFLLILLKGLQRLNPALRLVLMSATGDNERFSRYFGGCPVIKVPGFMYPVKEHYLEDILAKLGKHQYLHRHRHHESEDECALDLDLVTDLVLHIDARGEPGGILCFLPGWQEIKGVQQRLQEALGMHESKYLILPVHSNIPMMDQKAIFQQPPVGVRKIVLATNIAETSITINDIVHVVDSGLHKEERYDLKTKVSCLETVWVSRANVIQRRGRAGRCQSGFAYHLFPRSRLEKMVPFQVPEILRTPLENLVLQAKIHMPEKTAVEFLSKAVDSPNIKAVDEAVILLQEIGVLDQREYLTTLGQRLAHISTDPRLAKAIVLAAIFRCLHPLLVVVSCLTRDPFSSSLQNRAEVDKVKALLSHDSGSDHLAFVRAVAGWEEVLRWQDRSSRENYLEENLLYAPSLRFIHGLIKQFSENIYEAFLVGKPSDCTLASAQCNEYSEEEELVKGVLMAGLYPNLIQVRQGKVTRQGKFKPNSVTYRTKSGNILLHKSTINREATRLRSRWLTYFMAVKSNGSVFVRDSSQVHPLAVLLLTDGDVHIRDDGRRATISLSDSDLLRLEGDSRTVRLLKELRRALGRMVERSLRSELAALPPSVQEEHGQLLALLAELLRGPCGSFDVRKTADD
B4: RPUSD4 (protein, UniProt Q96CM3 16-377)
chain: NGQGCGSLFTLVSKPFCAAAAASTAINAQRLAEKLRAQKREQDTKKEPVSTNAVQRRVQEIVRFTRQLQRVHPNVLAKALTRGILHQDKNLVVINKPYGLPVHGGPGVQLCITDVLPILAKMLHGHKAEPLHLCHRLDKETTGVMVLAWDKDMAHQVQELFRTRQVVKKYWAITVHVPMPSAGVVDIPIVEKEAQGQQQHHKMTLSPSYRMDDGKMVKVRRSRNAQVAVTQYQVLSSTLSSALVELQPITGIKHQLRVHLSFGLDCPILGDHKYSDWNRLAPQKLSVGTLKKLGLEQSKARYIPLHLHARQLILPALGSGKEELNLVCKLPRFFVHSLHRLRLEMPNEDQNENNEAKCLGAQ

Biological target: T1, C6orf203::FLAG (C-terminal FLAG tagged C6orf203) (human) (UniProt Q9P0P8)
T1 sequence: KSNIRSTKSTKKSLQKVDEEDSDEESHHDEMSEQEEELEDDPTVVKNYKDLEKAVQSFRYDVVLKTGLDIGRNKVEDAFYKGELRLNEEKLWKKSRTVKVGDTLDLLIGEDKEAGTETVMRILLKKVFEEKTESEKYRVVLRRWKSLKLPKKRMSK
Test: affinity purification with mass spectrometry; FLAG immunoprecipitation from mitochondrial lysate of HEK293T expressing C6orf203::FLAG; eluates analysed by label-free quantitative mass spectrometry (n = 3) against HEK293T without FLAG protein expression

| Molecule | binding |
| --- | --- |
| GTPBP10 (from UniProt A4D1E9 1-387) | binds |
| B1 | binds |
| B2 | binds |
| B3 | binds |
| B4 | binds |
